This passage reports crude mass results from patent US6316414A (Dabur Research Foundation, priority 2000, dated 2001).

The data set can be described thus: general procedure: Fmoc solid-phase peptide synthesis; Rink Amide; DCC or DIPCDI/HOBt or HBTU/HOBT and DIEA. The settings on record: whole synthesis, scale 0.5 g, one disulfide bridge, sequence written open.

“D-Phe-Cys-Tyr-D-Trp-Lys-Ac5c-Cys-Thr-NH2” came in with a crude mass of 268 mg.

For “D-Phe-Cys-Tyr-D-Trp-Lys-Ac5c-Pen-Thr-NH2”, the crude mass was found to be 288 mg. The result for “D-Phe-Cys-Tyr-D-Trp-Orn-Ac5c-Cys-Thr-NH2” reads 326 mg; that for “D-Phe-Cys-Tyr-D-Trp-Orn-Ac5c-Pen-Thr-NH2”, 236 mg. In turn, D-Phe-Cys-Tyr-D-Trp-Orn-Aib-Cys-Thr-NH2 yielded a crude mass of 325 mg.

The substance D-Phe-Cys-Tyr-D-Trp-Orn-Aib-Pen-Thr-NH2 had a crude mass of 218 mg.

In turn, D-Phe-Cys-Tyr-D-Trp-Orn-Deg-Cys-Thr-NH2 yielded a crude mass of 268 mg. With D-Phe-Cys-Tyr-D-Trp-Orn-Dpg-Cys-Thr-NH2 the figure was 339 mg.
